{"source": "paper doi:10.1101/2021.06.14.447554", "binders": {"B1": {"name": "Drosophila melanogaster Suppressor of Fused (protein, UniProt Q9VG38 1-468)", "chain": "MAEANLDKKPEVKPPPGLKAIIDHLGQVYPNQPNPLQVTTLLKYWLGGQDPLDYISMYNYPGDVDRNVPPHWHYISFGLSDLHGDERVHLREEGVTRSGMGFELTFRLAKTEIELKQQIENPEKPQRPPTWPANLLQAIGRYCFQTGNGLCFGDNIPWRKSLDGSTTSKLQNLLVAQDPQLGCIDTPTGTVDFCQIVGVFDDELEQASRWNGRGVLNFLRQDMQTGGDWLVTNMDRQMSVFELFPETLLNLQDDLEKQGSDLAGVNADFTFRELKPTKEVKEEVDFQALSEKCANDENNRQLTDTQMKREEPSFPQSMSMSSNSLHKSCPLDFQAQAPNCISLDGIEITLAPGVAKYLLLAIKDRIRHGRHFTFKAQHLALTLVAESVTGSAVTVNEPYGVLGYWIQVLIPDELVPRLMEDFRSAGLDEKCEPKERLELEWPDKNLKLIIDQPEPVLPMSLDAAPLKM"}}, "molecular_target": "Drosophila melanogaster Suppressor of Fused (Drosophila melanogaster) (UniProt Q9VG38)", "assay": "SEC-SAXS", "note": "No constants are given. Whether binding was seen depends on the method and setting. Where a sequence is shown, tags or fusion partners need not be part of it."}
{"binder": "B1", "values": [{"measurement": "binding", "result": "no binding"}]}
